# Results as given in the supplement of paper PMC4604168 (melanoma cell lines).
# This is one part of the list. Single values are uncertain, as repeats are few or missing.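 Imaging used 1,536-well plates; nuclei positive for cleaved PARP by antibody were divided by total DNA-stained nuclei to yield the apoptosis fraction. Doses for screening kept most cells viable, and cell lines differ markedly in resting and induced cleaved-PARP levels.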
# Test system: IPC-298
# Test: cleaved PARP positive nuclei fraction relative to DMSO control; melanoma cells; higher = more apoptosis
# Conditions: library dose: low library concentration; 72 h
row,SMILES,cleaved PARP positive nuclei fraction
1,"O=c1[nH]nc(Sc2ncc([N+](=O)[O-])s2)n1-c1ccc2c(c1)OCCO2 + COc1cc2c(Oc3ccc4[nH]c(C)cc4c3F)ncnc2cc1OCCCN1CCCC1 [cediranib] (first compound 0.2 µM, partner dose 0.4 µM)",45.4%
2,"Cc1cc(Nc2cc(N3CCN(C)CC3)nc(Sc3ccc(NC(=O)C4CC4)cc3)n2)n[nH]1 [Tozasertib] + NC(=O)Nc1cc(-c2cccc(F)c2)sc1C(=O)N[C@H]1CCCNC1 [AZD7762] (first compound 0.006 µM, partner dose 0.02 µM)",87.1%
3,"Cc1cn(-c2cc(NC(=O)c3ccc(C)c(Nc4nccc(-c5cccnc5)n4)c3)cc(C(F)(F)F)c2)cn1 [nilotinib] + O=C(Nc1cccc(Cl)c1)Nc1ncc(CCNc2ncnc3ccsc23)s1 [SNS314] (first compound 0.2 µM, partner dose 0.0008 µM)",47.1%
4,"CCCCCCCCCCCCCCCCCCOP(=O)([O-])OC1CC[N+](C)(C)CC1 [Perifosine] + CC(C)(C)c1cnc(CSc2cnc(NC(=O)C3CCNCC3)s2)o1 [SNS-032] (first compound 0.4 µM, partner dose 0.01 µM)",87.6%
5,"O=C(Nc1cc(C(F)(F)F)cc(C(F)(F)F)c1)c1cc(Cl)ccc1O + NCC(=O)Nc1ccc(-n2nc(C(F)(F)F)cc2-c2ccc3c(ccc4ccccc43)c2)cc1 [OSU03012] (first compound 0.016 µM, partner dose 1 µM)",117%
6,"CCCCCCCCCCCCCCCCCCOP(=O)([O-])OC1CC[N+](C)(C)CC1 [Perifosine] + O=C(O)c1ccc(-c2c[nH]c3ncc(-c4ccccc4)cc23)cc1C1CCCC1 [GSK650394] (first compound 0.4 µM, partner dose 0.16 µM)",137%
7,"O=C(Nc1cc(C(F)(F)F)cc(C(F)(F)F)c1)c1cc(Cl)ccc1O + C[C@@H]1CCN(C(=O)CC#N)C[C@@H]1N(C)c1ncnc2[nH]ccc12 [CP690550] (first compound 0.016 µM, partner dose 1 µM)",95.8%
8,"CC[C@]1(O)C[C@H]2CN(CCc3c([nH]c4ccccc34)[C@@](C(=O)OC)(c3cc4c(cc3OC)N(C=O)[C@H]3[C@@](O)(C(=O)OC)[C@H](OC(C)=O)[C@]5(CC)C=CCN6CC[C@]43[C@@H]65)C2)C1 [vincristine] + CO[C@@H]1[C@H](N(C)C(=O)c2ccccc2)C[C@H]2O[C@]1(C)n1c3ccccc3c3c4c(c5c6ccccc6n2c5c31)C(=O)NC4 [Midostaurin] (first compound 0.0001 µM, partner dose 0.08 µM)",64.7%
9,"COc1cc([C@@H]2c3cc4c(cc3[C@@H](O[C@@H]3O[C@@H]5CO[C@@H](C)O[C@H]5[C@H](O)[C@H]3O)[C@H]3COC(=O)[C@H]23)OCO4)cc(OC)c1O [etoposide] + OCCn1cc(-c2cnc3nnn(Cc4ccc5ncccc5c4)c3n2)cn1 [PF04217903] (first compound 0.02 µM, partner dose 1 µM)",49.2%
10,"CCCCCCCCCCCCCCCCCCOP(=O)([O-])OC1CC[N+](C)(C)CC1 [Perifosine] + C[C@@H]1CCN(C(=O)CC#N)C[C@@H]1N(C)c1ncnc2[nH]ccc12 [CP690550] (first compound 0.4 µM, partner dose 1 µM)",44.3%
11,"O=C(/C=C/c1cccnc1)NCCCCC1CCN(C(=O)c2ccccc2)CC1 + Cc1ccc(NC(=O)c2cccc(N(C)C)c2)cc1NC(=O)c1ccc(O)cc1 [ZM336372] (first compound 0.01 µM, partner dose 2 µM)",191%
12,"Cc1ccc(Nc2nccc(N(C)c3ccc4c(C)n(C)nc4c3)n2)cc1S(N)(=O)=O [Pazopanib] + COc1cc(Nc2ncc(F)c(Nc3ccc4c(n3)NC(=O)C(C)(C)O4)n2)cc(OC)c1OC [Tamatinib] (first compound 0.4 µM, partner dose 0.4 µM)",184%
13,"N#CC[C@H](C1CCCC1)n1cc(-c2ncnc3[nH]ccc23)cn1 [ruxolitinib] + COc1cc(Nc2ncc(F)c(Nc3ccc4c(n3)NC(=O)C(C)(C)O4)n2)cc(OC)c1OC [Tamatinib] (first compound 1 µM, partner dose 0.4 µM)",99.4%

# For convenience, part of the list above.
row,SMILES,cleaved PARP positive nuclei fraction
9,"COc1cc([C@@H]2c3cc4c(cc3[C@@H](O[C@@H]3O[C@@H]5CO[C@@H](C)O[C@H]5[C@H](O)[C@H]3O)[C@H]3COC(=O)[C@H]23)OCO4)cc(OC)c1O [etoposide] + OCCn1cc(-c2cnc3nnn(Cc4ccc5ncccc5c4)c3n2)cn1 [PF04217903] (first compound 0.02 µM, partner dose 1 µM)",49.2%
10,"CCCCCCCCCCCCCCCCCCOP(=O)([O-])OC1CC[N+](C)(C)CC1 [Perifosine] + C[C@@H]1CCN(C(=O)CC#N)C[C@@H]1N(C)c1ncnc2[nH]ccc12 [CP690550] (first compound 0.4 µM, partner dose 1 µM)",44.3%
